The list shows only some results of the screen, not a fair sample: it gathers tests that were run many times, whatever their T/C, doses with no T/C, and many T/C values between a quarter and a half above the control. Further doses and runs are listed elsewhere. T/C: endpoint of the treated group in % of that of the vehicle group. Schedules are NCI's codes, taken here to give the interval after Q, in days (D) or hours (H), and the number of doses after X. Some values lie below zero, which means that the treated tumours became smaller. Some entries hold several experiments; the values are given in rising order. Some T/C values carry the count of animals alive at the toxicity check (mostly the fifth day); without a count, all were alive then. Some entries give survivors of the animals treated and no T/C: the source holds a T/C of zero for them, seemingly a mark for toxic or unscored doses. Survivors were counted at the toxicity check, usually on the fifth day, unless a day is given; later deaths do not show. Starred links: 1 amine or outer side, 2 acyl side, 3 side chain; linkers in the order of their positions; H or OH if unused. Positions of bridges follow the written chain, without caps; N, C: chain ends. Non-standard residues stand in square brackets, D forms with d. Residues, ends and D or L forms follow the SMILES beside them. Chains are numbered I, II in the order given. Actinocin(9to1) = Cc1c2oc3c(C)ccc(C(=O)[*:1])c3nc-2c(C(=O)[*:2])c(N)c1=O; aThr = C[C@H](O)[C@H](N)C(=O)O; NMeV = CN[C@H](C(=O)O)C(C)C; Sar = CNCC(=O)O

T/C and survivor count data for 20 molecules are collected here from PubChem BioAssay AID206 (DTP/NCI, 2004).

The test has as its system nude mice, HT29 intrarenal xenograft, tumor weight T/C. Briefly: NCI In Vivo Anticancer Drug Screen. Data for tumor model HT29;CX-1 Human Adenocarcinoma (MER+) (intrarenal inoculation) in NU/NU Swiss (nude) mice. As to conditions: T/C endpoint: mean tumor weight change, higher T/C = larger tumour. Summed up:
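Mice with transplanted tumors are dosed with compound while controls get vehicle only. Survival or tumor burden is then assessed per group, and the treated value is expressed relative to control.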

Setting [1] is: dose: 800.0 mg/kg/injection, schedule: Q01DX010 (sc), vehicle: Klucel (hydroxypropylcellulose) (HPC).
Setting [2] is: dose: 200.0 mg/kg/injection, schedule: Q01DX010 (sc), vehicle: saline.
Where [3] appears, read: dose: 800.0 mg/kg/injection, schedule: Q01DX010 (sc), vehicle: saline.
[4] abbreviates: dose: 1600.0 mg/kg/injection, schedule: Q01DX010 (sc), vehicle: saline.
Where [5] appears, read: dose: 400.0 mg/kg/injection, schedule: Q01DX010 (sc), vehicle: saline.

Regarding `c1ccc2c(NCCCCCCNc3c4ccccc4nc4ccccc34)c3ccccc3nc2c1`, the T/C was 49, 62, 64, 74 % of control (dose: 5.0 mg/kg/injection, schedule: Q01DX010 (sc), vehicle: Klucel (hydroxypropylcellulose) (HPC), evaluated on day 11); 28, 51 [2 of 2 alive on day 11], 58, 69 [2 of 2 alive on day 11], 84, 144 % of control (dose: 10.0 mg/kg/injection, schedule: Q01DX010 (sc), vehicle: Klucel (hydroxypropylcellulose) (HPC), evaluated on day 11); 3 [2 of 3 alive on day 11], 54, 74 % of control (dose: 20.0 mg/kg/injection, schedule: Q01DX010 (sc), vehicle: Klucel (hydroxypropylcellulose) (HPC), evaluated on day 11); 10 % of control [2 of 2 alive on day 11] (dose: 40.0 mg/kg/injection, schedule: Q01DX010 (sc), vehicle: Klucel (hydroxypropylcellulose) (HPC), evaluated on day 11). The survivor count is, setting by setting: (dose: 20.0 mg/kg/injection, schedule: Q01DX010 (sc), vehicle: Klucel (hydroxypropylcellulose) (HPC)) 1 of 3 on day 11; (dose: 40.0 mg/kg/injection, schedule: Q01DX010 (sc), vehicle: Klucel (hydroxypropylcellulose) (HPC)) 0 of 3 on day 11; (dose: 80.0 mg/kg/injection, schedule: Q01DX010 (sc), vehicle: Klucel (hydroxypropylcellulose) (HPC)) 0 of 3 on day 11.
With `COc1cc2c(c(OC)c1OC)-c1ccc(OC)c(=O)cc1[C@@H](NC(C)=O)CC2`, the T/C (dose: 0.25 mg/kg/injection, schedule: Q01DX010 (sc), vehicle: saline, evaluated on day 20) was 133 % of control. Besides, the survivor count was 1 of 3 on day 20 (dose: 1.0 mg/kg/injection, schedule: Q01DX010 (sc), vehicle: saline) and 0 of 3 on day 20 (dose: 2.0 mg/kg/injection, schedule: Q01DX010 (sc), vehicle: saline).
Regarding `Cc1ccc2c(c1)N=C(Nc1ccccc1)N=S2(C)=O` (stereo not given), the survivor count (dose: 400.0 mg/kg/injection, schedule: Q04DX004 (sc), vehicle: saline with Tween-80) is reported as 2 of 6 on day 15.
On to `CC1(C)CC23C4COC(=O)C2CCC1C3CC4=O` (stereo not given), for which, for the setting “dose: 200.0 mg/kg/injection, schedule: Q04DX004 (sc), vehicle: DMSO, evaluated on day 15”, the T/C is 140 % of control.
Take `COC1C(O)C(C)OC(OC2C(Oc3cccc4c(O)c5c(=O)oc6ccc(C)c7c(=O)oc(c34)c5c67)OC(C)C(O)C2O)C1O` (stereo not given): the survivor count under setting [1] is 0 of 3 on day 20.
As for `CN(C)/N=N/c1nc[nH]c1C(N)=O`, the survivor count was 0 of 3 on day 11 (dose: 400.0 mg/kg/injection, schedule: Q01DX010 (sc), vehicle: Klucel (hydroxypropylcellulose) (HPC)) and 0 of 3 on day 11 under setting [1].
With `CC[C@H](CC[C@@H](C)C1CC[C@H]2[C@@H]3CC=C4C[C@@H](OP(=O)(N5CC5)N5CC5)CC[C@]4(C)[C@H]3CC[C@]12C)C(C)C` (stereo not given in full), the T/C was 148 % of control (dose: 200.0 mg/kg/injection, schedule: Q01DX010 (sc), vehicle: saline with Tween-80, evaluated on day 20) and 134 % of control (dose: 400.0 mg/kg/injection, schedule: Q01DX010 (sc), vehicle: saline with Tween-80, evaluated on day 20).
Turning to `CNNCc1ccc(C(=O)NC(C)C)cc1`, the survivor count under setting [2] is given as 1 of 3 on day 11 and the survivor count under setting [3] is recorded as 0 of 3 on day 11.
On to `COc1cccc2c1C(=O)c1c(O)c3c(c(O)c1C2=O)C[C@@](O)(/C(CO)=N/NC(=O)c1ccc(Cl)c(Cl)c1)C[C@@H]3OC1CC(N)C(O)C(C)O1` (stereo not given in full), for which the survivor count is, setting by setting: (dose: 16.0 mg/kg/injection, schedule: Q01DX010 (sc), vehicle: water) 1 of 2 on day 20; (dose: 32.0 mg/kg/injection, schedule: Q01DX010 (sc), vehicle: water) 0 of 3 on day 20; (dose: 80.0 mg/kg/injection, schedule: Q04DX004 (sc), vehicle: water) 1 of 3 on day 15; (dose: 160.0 mg/kg/injection, schedule: Q04DX004 (sc), vehicle: water) 1 of 3 on day 15.
Turning to `COc1cccc2c1C(=O)c1c(O)c3c(c(O)c1C2=O)CC(O)(/C(C)=N/NC(=O)CCCCC(=O)N/N=C(\C)C1(O)Cc2c(O)c4c(c(O)c2C(OC2CC(N)C(O)C(C)O2)C1)C(=O)c1c(OC)cccc1C4=O)CC3OC1CC(N)C(O)C(C)O1` (stereo not given), the survivor count is, setting by setting: (dose: 100.0 mg/kg/injection, schedule: Q04DX004 (sc), vehicle: water) 0 of 6 on day 15; (dose: 200.0 mg/kg/injection, schedule: Q04DX004 (sc), vehicle: water) 0 of 6 on day 15; (dose: 400.0 mg/kg/injection, schedule: Q04DX004 (sc), vehicle: water) 0 of 6 on day 15.
Turning to `CN1C(=O)CC2(CCN(CCCC(=O)c3ccc(F)cc3)CC2)C1=O`, the survivor count by setting is: (dose: 150.0 mg/kg/injection, schedule: Q04DX004 (sc), vehicle: suspension in saline) 2 of 6 on day 15; (dose: 300.0 mg/kg/injection, schedule: Q04DX004 (sc), vehicle: suspension in saline) 1 of 6 on day 15; (dose: 600.0 mg/kg/injection, schedule: Q04DX004 (sc), vehicle: suspension in saline) 0 of 6 on day 15.
Take `CNC=O`: the T/C (dose: 200.0 mg/kg/injection, schedule: Q01DX010 (sc), vehicle: saline, evaluated on day 11) is 12, 21, 53, 57 % of control; the T/C (dose: 400.0 mg/kg/injection, schedule: Q01DX010 (sc), vehicle: saline, evaluated on day 11) was -19, -16, 3, 25 % of control; the T/C (dose: 800.0 mg/kg/injection, schedule: Q01DX010 (sc), vehicle: saline, evaluated on day 11) was -49 [5 of 6 alive on day 11], -35, 5 % of control [4 of 6 alive on day 11]; the T/C (dose: 1600.0 mg/kg/injection, schedule: Q01DX010 (sc), vehicle: saline, evaluated on day 11) was -51 [4 of 6 alive on day 11] and -16 % of control [5 of 6 alive on day 11]. Moreover, the survivor count is, setting by setting: under setting [3], 0 of 6 on day 11; under setting [4], 0 of 6 on day 11.
As for `O=C(O)C(O)C(O)C1[O][Sb][O]C1C(=O)O` (stereo not given), the survivor count (dose: 300.0 mg/kg/injection, schedule: Q04DX004 (sc), vehicle: saline) is recorded as 0 of 6 on day 15.
Turning to `C[C@]12C=CC(=O)C=C1CC[C@@H]1[C@@H]2C(=O)C[C@@]2(C)[C@H]1CC[C@]2(O)C(=O)CO`, the survivor count runs as follows: (dose: 600.0 mg/kg/injection, schedule: Q04DX004 (sc), vehicle: Klucel (hydroxypropylcellulose) (HPC)) 1 of 6 on day 15 and 1 of 5 on day 15; (dose: 1200.0 mg/kg/injection, schedule: Q04DX004 (sc), vehicle: Klucel (hydroxypropylcellulose) (HPC)) 0 of 6 on day 15; (dose: 2400.0 mg/kg/injection, schedule: Q04DX004 (sc), vehicle: Klucel (hydroxypropylcellulose) (HPC)) 0 of 6 on day 15 and 1 of 6 on day 15.
Consider `COc1cc2cc3cc4cc(OC)c(OC)cc4c(C)[n+]3cc2cc1OC` (tested in a mixture with another compound), for which, for the setting “dose: 1600.0 mg/kg/injection, schedule: Q04DX004 (sc), vehicle: suspension in saline”, the survivor count is 0 of 6 on day 15.
As to `NCCc1ccc(O)c(O)c1`, the survivor count reads like this: under setting [5], 1 of 3 on day 11; under setting [3], 1 of 3 on day 11; under setting [4], 1 of 3 on day 11.
In the case of `NC(C/[N+]([O-])=N/O)C(=O)O` (stereo not given), the survivor count runs as follows: under setting [2], 0 of 3 on day 11; under setting [5], 0 of 3 on day 11.
For `Cc1c2oc3c(C)ccc(C(=O)N[C@@H]4C(=O)N[C@H](C(C)C)C(=O)N5CCC[C@H]5C(=O)N(C)CC(=O)N(C)[C@@H](C(C)C)C(=O)O[C@H]4C)c3nc-2c(C(=O)N[C@@H]2C(=O)N[C@H](C(C)C)C(=O)N3CCC[C@H]3C(=O)N(C)CC(=O)N(C)[C@@H](C(C)C)C(=O)O[C@H]2C)c(N)c1=O` (I: [aThr][dV]P[Sar][NMeV] / II: [aThr][dV]P[Sar][NMeV]; ester I:1-I:C, II:1-II:C; linker I:N-II:N via Actinocin(9to1)), the survivor count (dose: 400.0 micrograms/kg/injection, schedule: Q01DX010 (sc), vehicle: saline) is reported as 0 of 3 on day 11.
As to `COc1ccc(Cl)[n+]([O-])n1`, the survivor count runs as follows: (dose: 200.0 mg/kg/injection, schedule: Q04DX004 (sc), vehicle: Klucel (hydroxypropylcellulose) (HPC)) 2 of 6 on day 15; (dose: 400.0 mg/kg/injection, schedule: Q04DX004 (sc), vehicle: Klucel (hydroxypropylcellulose) (HPC)) 0 of 6 on day 15.
In the case of `CNC(=O)n1c(N)nc(-c2ccccc2)c1-c1ccccc1`, the survivor count is reported as 3 of 6 on day 15 (dose: 1200.0 mg/kg/injection, schedule: Q04DX004 (sc), vehicle: saline with Tween-80) and 3 of 6 on day 15 (dose: 2400.0 mg/kg/injection, schedule: Q04DX004 (sc), vehicle: saline with Tween-80).
